Some of the results follow.
compound: COc1ccc(Cn2ccc3cc(C)c(C(=O)NO)cc32)cc1; assay: dose-dependent thermal stabilisation call (2D-TPP, DLPTP, 10% FDR) (binary (1 = stabilised)); higher = stabilised by the compound; conditions: system: HL-60 intact cells; concentration range 0.04-10 µM
Procedure: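 2D thermal proteome profiling in intact HL-60 cells treated with BRD-3811 (0, 0.04, 0.29, 2, 10 uM) for 90 min at 37 C, then heated 3 min at one of 12 temperatures (42-63.9 C). Soluble protein was quantified by TMT10 MS. The value is the DLPTP call of the paper: dose-dependent thermal stabilisation over all temperatures at 10% FDR (F-test of a dose-response against a flat model); one experiment, one call per tested protein.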

Amino acid sequences for entries named in this document (tags omitted). A change or cut given only in a name is not applied to a line headed by its entry.
UniProt Q8TDP1: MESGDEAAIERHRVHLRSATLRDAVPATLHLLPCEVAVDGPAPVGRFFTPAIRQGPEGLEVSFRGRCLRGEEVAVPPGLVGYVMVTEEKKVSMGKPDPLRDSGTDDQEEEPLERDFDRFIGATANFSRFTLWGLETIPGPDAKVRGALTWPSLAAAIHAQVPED
UniProt Q15291, whole entry: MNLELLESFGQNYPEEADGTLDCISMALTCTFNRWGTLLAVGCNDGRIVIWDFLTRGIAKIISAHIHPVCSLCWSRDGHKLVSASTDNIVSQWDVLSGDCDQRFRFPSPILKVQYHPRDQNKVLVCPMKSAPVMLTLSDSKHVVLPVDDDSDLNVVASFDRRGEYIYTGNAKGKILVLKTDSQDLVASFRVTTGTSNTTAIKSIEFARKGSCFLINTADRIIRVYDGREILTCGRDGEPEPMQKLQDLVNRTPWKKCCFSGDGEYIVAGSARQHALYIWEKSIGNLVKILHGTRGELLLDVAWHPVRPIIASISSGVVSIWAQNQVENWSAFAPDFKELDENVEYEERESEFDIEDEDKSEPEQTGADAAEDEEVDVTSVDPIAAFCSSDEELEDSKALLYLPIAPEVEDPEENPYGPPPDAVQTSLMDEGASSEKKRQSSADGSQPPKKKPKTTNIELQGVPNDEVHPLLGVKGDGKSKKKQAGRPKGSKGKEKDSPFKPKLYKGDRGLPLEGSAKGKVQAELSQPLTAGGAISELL
UniProt P98179: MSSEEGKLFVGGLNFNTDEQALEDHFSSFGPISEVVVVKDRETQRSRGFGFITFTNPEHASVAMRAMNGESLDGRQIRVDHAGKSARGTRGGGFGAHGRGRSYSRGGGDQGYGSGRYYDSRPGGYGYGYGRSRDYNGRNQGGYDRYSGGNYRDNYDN
UniProt Q9H0Z9: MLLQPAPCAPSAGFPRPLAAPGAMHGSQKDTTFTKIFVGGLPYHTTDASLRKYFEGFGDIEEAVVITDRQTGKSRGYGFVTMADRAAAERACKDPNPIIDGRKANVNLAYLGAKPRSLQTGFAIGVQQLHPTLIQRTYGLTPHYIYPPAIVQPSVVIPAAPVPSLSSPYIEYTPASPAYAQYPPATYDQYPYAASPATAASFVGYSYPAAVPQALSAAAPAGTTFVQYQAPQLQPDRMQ
UniProt Q13127: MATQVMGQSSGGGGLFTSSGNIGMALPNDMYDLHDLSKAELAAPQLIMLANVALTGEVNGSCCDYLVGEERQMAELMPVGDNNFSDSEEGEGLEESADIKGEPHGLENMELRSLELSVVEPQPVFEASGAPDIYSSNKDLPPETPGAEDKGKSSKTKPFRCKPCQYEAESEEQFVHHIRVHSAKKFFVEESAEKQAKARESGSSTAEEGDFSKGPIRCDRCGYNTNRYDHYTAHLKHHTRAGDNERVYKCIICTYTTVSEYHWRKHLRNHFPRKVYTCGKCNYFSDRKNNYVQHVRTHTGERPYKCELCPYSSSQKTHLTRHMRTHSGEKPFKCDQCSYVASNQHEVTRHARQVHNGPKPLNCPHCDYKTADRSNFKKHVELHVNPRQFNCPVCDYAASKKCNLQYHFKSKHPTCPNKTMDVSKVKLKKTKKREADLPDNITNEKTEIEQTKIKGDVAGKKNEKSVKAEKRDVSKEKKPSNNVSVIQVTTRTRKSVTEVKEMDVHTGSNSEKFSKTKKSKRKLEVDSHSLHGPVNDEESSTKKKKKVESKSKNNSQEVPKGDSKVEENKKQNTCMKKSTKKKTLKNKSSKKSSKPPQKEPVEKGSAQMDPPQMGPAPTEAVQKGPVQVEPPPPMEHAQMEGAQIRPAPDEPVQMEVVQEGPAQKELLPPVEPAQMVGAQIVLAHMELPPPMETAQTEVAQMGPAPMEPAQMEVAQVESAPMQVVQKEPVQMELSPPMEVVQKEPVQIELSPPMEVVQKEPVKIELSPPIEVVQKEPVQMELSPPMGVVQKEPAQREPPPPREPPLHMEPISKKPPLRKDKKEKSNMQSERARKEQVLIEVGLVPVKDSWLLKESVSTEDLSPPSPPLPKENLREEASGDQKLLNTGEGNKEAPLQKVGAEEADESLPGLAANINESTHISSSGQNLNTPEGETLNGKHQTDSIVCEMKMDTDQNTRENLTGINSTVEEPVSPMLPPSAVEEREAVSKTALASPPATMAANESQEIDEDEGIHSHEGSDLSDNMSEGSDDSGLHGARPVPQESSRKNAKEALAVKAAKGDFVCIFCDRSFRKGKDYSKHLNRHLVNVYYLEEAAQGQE
UniProt O75943: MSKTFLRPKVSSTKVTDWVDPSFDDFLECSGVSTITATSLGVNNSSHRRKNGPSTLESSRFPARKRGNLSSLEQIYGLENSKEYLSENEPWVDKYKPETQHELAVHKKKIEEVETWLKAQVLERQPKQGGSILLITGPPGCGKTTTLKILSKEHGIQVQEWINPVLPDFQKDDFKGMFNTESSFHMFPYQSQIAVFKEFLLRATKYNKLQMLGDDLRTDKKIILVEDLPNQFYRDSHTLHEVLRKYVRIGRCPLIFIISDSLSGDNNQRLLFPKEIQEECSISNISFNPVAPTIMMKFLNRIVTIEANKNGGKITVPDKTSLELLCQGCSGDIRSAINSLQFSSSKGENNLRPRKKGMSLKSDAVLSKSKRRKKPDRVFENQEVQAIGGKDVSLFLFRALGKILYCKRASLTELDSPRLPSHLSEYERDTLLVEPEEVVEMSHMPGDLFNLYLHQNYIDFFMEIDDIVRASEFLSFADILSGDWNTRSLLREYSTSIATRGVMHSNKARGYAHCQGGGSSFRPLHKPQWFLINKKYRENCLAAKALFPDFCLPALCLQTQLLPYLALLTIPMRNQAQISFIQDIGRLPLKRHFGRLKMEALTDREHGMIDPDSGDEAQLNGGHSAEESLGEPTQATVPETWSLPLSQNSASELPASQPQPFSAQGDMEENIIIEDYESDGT
UniProt Q15293: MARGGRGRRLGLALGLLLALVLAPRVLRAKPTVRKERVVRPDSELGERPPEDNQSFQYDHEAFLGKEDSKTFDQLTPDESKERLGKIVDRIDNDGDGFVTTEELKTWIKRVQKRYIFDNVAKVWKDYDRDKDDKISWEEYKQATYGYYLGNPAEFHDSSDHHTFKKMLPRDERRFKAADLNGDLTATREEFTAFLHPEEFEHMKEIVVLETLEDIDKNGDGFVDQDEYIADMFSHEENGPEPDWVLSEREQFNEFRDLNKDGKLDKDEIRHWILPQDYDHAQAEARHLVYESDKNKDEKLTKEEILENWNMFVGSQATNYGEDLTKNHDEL
UniProt Q86YS6: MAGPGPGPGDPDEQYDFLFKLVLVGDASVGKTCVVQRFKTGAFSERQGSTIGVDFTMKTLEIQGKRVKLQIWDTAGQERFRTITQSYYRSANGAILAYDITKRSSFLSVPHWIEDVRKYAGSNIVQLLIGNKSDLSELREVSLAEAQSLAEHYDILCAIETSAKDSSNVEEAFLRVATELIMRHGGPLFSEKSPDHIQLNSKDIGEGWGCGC
UniProt P61020: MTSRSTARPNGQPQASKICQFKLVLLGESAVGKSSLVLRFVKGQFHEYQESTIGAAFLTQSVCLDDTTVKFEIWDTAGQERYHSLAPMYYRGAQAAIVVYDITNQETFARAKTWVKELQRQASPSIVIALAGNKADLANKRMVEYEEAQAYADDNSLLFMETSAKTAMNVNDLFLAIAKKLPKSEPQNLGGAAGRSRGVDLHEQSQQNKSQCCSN
UniProt A6NED2: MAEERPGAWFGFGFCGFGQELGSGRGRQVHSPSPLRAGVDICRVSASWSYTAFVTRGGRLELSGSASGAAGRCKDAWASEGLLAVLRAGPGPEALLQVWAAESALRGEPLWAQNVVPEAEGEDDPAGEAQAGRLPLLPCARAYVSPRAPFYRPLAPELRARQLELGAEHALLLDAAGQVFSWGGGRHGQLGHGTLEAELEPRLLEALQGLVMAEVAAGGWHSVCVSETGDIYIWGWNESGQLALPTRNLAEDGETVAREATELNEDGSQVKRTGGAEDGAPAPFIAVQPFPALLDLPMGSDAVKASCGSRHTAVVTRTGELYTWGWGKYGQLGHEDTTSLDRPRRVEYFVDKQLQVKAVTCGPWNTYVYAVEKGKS
UniProt O00584, whole entry: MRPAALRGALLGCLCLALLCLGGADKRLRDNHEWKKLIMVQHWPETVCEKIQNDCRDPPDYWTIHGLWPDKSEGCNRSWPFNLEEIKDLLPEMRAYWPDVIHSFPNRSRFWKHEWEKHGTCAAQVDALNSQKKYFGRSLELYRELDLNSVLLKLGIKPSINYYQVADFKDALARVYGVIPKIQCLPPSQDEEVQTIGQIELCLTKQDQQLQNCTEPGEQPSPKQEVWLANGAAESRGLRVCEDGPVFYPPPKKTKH
UniProt Q5HYI8: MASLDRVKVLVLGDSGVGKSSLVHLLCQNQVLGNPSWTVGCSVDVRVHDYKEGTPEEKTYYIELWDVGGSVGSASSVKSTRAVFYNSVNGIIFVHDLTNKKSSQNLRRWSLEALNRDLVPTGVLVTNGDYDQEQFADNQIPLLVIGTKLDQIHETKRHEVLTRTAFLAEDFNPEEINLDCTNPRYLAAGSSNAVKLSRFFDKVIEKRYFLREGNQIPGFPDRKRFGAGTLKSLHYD
UniProt Q96HR9: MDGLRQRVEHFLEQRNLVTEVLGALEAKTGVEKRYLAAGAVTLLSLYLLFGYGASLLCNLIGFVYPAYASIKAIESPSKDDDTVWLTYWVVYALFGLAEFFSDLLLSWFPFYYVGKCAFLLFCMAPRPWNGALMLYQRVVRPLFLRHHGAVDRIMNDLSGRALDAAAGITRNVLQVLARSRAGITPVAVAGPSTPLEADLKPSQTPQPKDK
UniProt P51151: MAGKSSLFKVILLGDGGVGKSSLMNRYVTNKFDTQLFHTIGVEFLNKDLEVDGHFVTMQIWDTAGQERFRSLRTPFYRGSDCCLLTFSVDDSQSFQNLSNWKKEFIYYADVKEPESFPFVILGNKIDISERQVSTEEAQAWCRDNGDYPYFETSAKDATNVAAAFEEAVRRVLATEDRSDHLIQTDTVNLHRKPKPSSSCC
UniProt Q9Y2P8: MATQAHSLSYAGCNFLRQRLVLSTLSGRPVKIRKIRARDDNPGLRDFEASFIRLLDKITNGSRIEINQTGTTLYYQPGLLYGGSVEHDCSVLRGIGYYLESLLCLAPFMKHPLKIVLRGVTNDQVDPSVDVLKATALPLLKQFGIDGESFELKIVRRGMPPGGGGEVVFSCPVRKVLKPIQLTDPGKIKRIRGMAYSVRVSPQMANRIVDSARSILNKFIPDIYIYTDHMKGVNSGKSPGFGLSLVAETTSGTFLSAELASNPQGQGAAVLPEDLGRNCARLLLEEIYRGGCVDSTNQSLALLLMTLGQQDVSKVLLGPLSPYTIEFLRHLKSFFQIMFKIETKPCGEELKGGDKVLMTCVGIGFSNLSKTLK
UniProt Q08999: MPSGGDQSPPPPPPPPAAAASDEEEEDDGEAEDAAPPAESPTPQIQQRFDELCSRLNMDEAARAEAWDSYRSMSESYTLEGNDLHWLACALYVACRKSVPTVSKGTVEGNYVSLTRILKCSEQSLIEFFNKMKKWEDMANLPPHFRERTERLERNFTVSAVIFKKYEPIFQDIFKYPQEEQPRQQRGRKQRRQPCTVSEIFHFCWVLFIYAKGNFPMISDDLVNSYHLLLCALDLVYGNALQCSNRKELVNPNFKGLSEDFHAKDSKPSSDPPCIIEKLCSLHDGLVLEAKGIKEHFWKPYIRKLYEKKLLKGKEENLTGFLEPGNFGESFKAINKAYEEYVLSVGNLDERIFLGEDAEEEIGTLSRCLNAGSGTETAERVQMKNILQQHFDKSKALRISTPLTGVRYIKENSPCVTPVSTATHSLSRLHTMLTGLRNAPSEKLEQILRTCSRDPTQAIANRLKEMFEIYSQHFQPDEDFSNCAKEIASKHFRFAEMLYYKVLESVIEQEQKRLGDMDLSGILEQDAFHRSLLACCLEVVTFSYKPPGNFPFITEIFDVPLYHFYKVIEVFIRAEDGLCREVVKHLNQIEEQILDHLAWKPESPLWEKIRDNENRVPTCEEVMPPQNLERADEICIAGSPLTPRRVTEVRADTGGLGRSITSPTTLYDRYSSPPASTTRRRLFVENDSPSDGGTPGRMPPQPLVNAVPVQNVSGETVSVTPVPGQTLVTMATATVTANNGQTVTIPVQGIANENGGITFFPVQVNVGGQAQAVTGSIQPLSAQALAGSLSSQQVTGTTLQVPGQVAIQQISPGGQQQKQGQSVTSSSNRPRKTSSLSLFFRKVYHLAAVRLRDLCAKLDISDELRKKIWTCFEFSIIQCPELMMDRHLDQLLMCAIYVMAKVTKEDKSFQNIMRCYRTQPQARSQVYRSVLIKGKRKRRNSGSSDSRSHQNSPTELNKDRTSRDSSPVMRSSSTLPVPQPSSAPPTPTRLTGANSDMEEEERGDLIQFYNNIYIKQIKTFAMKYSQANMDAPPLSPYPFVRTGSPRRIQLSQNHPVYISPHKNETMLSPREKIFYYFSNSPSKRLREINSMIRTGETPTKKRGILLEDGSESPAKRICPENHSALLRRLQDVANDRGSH

| Target | dose-dependent thermal stabilisation call |
| --- | --- |
| REEP3 (UniProt Q6NUK4) | inactive: 0 |
| RACGAP1 (UniProt Q9H0H5) | inactive: 0 |
| RDX (UniProt P35241) | inactive: 0 |
| RNASEH2C (UniProt Q8TDP1) | inactive: 0 |
| QKI (UniProt Q96PU8) | inactive: 0 |
| RMND1 (UniProt Q9NWS8) | inactive: 0 |
| RAB7A (UniProt P51149) | inactive: 0 |
| RAB10 (UniProt P61026) | inactive: 0 |
| RNF113A (UniProt O15541) | inactive: 0 |
| RBBP5 (UniProt Q15291) | inactive: 0 |
| RBM3 (UniProt P98179) | inactive: 0 |
| RAC2 (UniProt P15153) | inactive: 0 |
| RHBDD2 (UniProt Q6NTF9) | inactive: 0 |
| PWP1 (UniProt Q13610) | inactive: 0 |
| RFC3 (UniProt P40938) | inactive: 0 |
| PUS7 (UniProt Q96PZ0) | inactive: 0 |
| RBM39 (UniProt Q14498) | inactive: 0 |
| RBM38 (UniProt Q9H0Z9) | inactive: 0 |
| RALB (UniProt P11234) | inactive: 0 |
| RABEPK (UniProt Q7Z6M1) | inactive: 0 |

| Target | dose-dependent thermal stabilisation call |
| --- | --- |
| REST (UniProt Q13127) | inactive: 0 |
| RIC8A (UniProt Q9NPQ8) | inactive: 0 |
| RAB31 (UniProt Q13636) | inactive: 0 |
| RAD17 (UniProt O75943) | inactive: 0 |
| RBM25 (UniProt P49756) | inactive: 0 |
| RAD23B (UniProt P54727) | inactive: 0 |
| RCN1 (UniProt Q15293) | inactive: 0 |
| RAB43 (UniProt Q86YS6) | inactive: 0 |
| RAB5B (UniProt P61020) | inactive: 0 |
| RCCD1 (UniProt A6NED2) | inactive: 0 |
| RNASET2 (UniProt O00584) | inactive: 0 |
| RABL3 (UniProt Q5HYI8) | inactive: 0 |
| REEP6 (UniProt Q96HR9) | inactive: 0 |
| PYCRL (UniProt Q53H96) | inactive: 0 |
| REXO4 (UniProt Q9GZR2) | inactive: 0 |
| RBMX (UniProt P38159) | inactive: 0 |
| RAB9A (UniProt P51151) | inactive: 0 |
| RCL1 (UniProt Q9Y2P8) | inactive: 0 |
| RBL2 (UniProt Q08999) | inactive: 0 |
| RARS (UniProt P54136) | inactive: 0 |

Rewritten as tab-separated lines: part of the list above.
Target	dose-dependent thermal stabilisation call
RBM25 (UniProt P49756)	inactive: 0
RAD23B (UniProt P54727)	inactive: 0
RCN1 (UniProt Q15293)	inactive: 0
RAB43 (UniProt Q86YS6)	inactive: 0
RAB5B (UniProt P61020)	inactive: 0
RCCD1 (UniProt A6NED2)	inactive: 0
RNASET2 (UniProt O00584)	inactive: 0
RABL3 (UniProt Q5HYI8)	inactive: 0
REEP6 (UniProt Q96HR9)	inactive: 0
PYCRL (UniProt Q53H96)	inactive: 0
REXO4 (UniProt Q9GZR2)	inactive: 0
RBMX (UniProt P38159)	inactive: 0
